Results published in PubChem BioAssay AID2685 (National Center for Advancing Translational Sciences (NCATS), 2010).
Some of the results follow. The main result of the screen is listed elsewhere. These columns were measured beside it and carry no call. Compounds called inactive in the main read-out are mostly missing here. Words in brackets tell the shape of the fitted curve; partial curves, single points and poor fits give uncertain potencies.

Assay: qHTS Assay for Lipid Storage Modulators in Drosophila S3 Cells;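 as to cell number change: cells counted by Cell Tracker Red CMTPX staining in the red channel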
Settings: BODIPY lipid droplet fluorescence, 18-24 h; for cell number change: measured here: cell count max response, cells fed with added oleic acid
Outline: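 Drosophila S3 cells got compounds at several concentrations plus oleic acid (400 uM solution). Laser-scanning cytometry with 488 nm excitation read lipid droplets at 500-530 nm and cells at 575-640 nm. Percent activity was relative to 20 uM Triacsin C.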

[1] = measured here: lipid fluorescence (Fed channel) AC50, cells fed with added oleic acid
[2] = measured here: cell number channel AC50, cells fed with added oleic acid

Compound	cell number change [%]	AC50 [1]	AC50 [2]
COc1cccc(OC2OC3COC(C)(C)OC3C(O)C2NC(C)=O)c1 (configuration not stated)	11.9		
Fc1ccccc1Cc1noc(CN(Cc2ccccn2)CC2CCCO2)n1 (configuration not stated)	-2.34		
O=C(NC1CCCC1)C(c1ccc(N2CCOCC2)cc1)N(Cc1ccccc1)C(=O)c1ccco1 (configuration not stated)	-2.94	0.00517 µM [falling, full curve, poor fit]	
O=C(NNc1nc2ccccc2s1)Nc1ccccc1	36.8	16.4 µM [rising, single point]	
CCn1c(=O)cc(SCC(=O)NCC2CCCO2)c2ccccc21 (configuration not stated)		2.91 µM [rising, single point]	
Nc1nc(SCC(=O)Nc2ccc(Cl)c([N+](=O)[O-])c2)n[nH]1	7.64	11.6 µM [falling, partial curve]	
CC1Oc2ccccc2N(CC(=O)Nc2ccc(F)cc2)C1=O (configuration not stated)	5.51	25.9 µM [rising, single point]	
COc1ccc(/C=C(\C#N)C(=O)OCC(=O)Nc2c(C)cccc2C(C)C)cc1			0.146 µM [rising, full curve, poor fit]
COC(=O)Cn1c(=NC(=O)c2nc3ccccc3s2)sc2cc(S(C)(=O)=O)ccc21	22.9	0.0058 µM [rising, full curve, poor fit]	
Nc1n[nH]c2c1C1(CCCC1)Cc1ccccc1-2	-31.2		20.6 µM [falling, partial curve, poor fit]
CC1(C)Cc2ccccc2C(=NC(Cc2ccccc2)C(=O)O)N1 (configuration not stated)	15.5		
COC(=O)[C@H](Cc1ccccc1)NC(=O)Cn1ccc(NC(=O)OCc2ccccc2)nc1=O	-0.129	0.103 µM [falling, full curve, poor fit]	0.058 µM [rising, partial curve, poor fit]
COC(=O)c1ccc(OCCOc2ccccc2C)cc1	0.529		
CCc1ccc(NC(=O)CSc2nc(=O)n(CCCN3CCOCC3)c3c2CCC3)cc1	-11.6		
CCOc1ccc(N(CC(=O)NCc2cccnc2)S(=O)(=O)c2ccc(F)cc2)cc1	38	29.1 µM [rising, single point]	46.1 µM [rising, single point]
N/C(=N\OC(=O)c1ccc(Br)o1)c1ccccn1	-40.9		
Cn1c(=O)[nH]c(=O)c2c1nc(Br)n2CCCO	1.76	5.17 µM [rising, partial curve]	
Cc1ccc2[nH]c(CNC(=O)c3ccccc3F)cc2c1	-2.89	11.6 µM [rising, partial curve]	
CC(C)(c1ccccc1)c1ccc(OCC(O)CNC2CCN(Cc3ccccc3)CC2)cc1 (configuration not stated)	-134		29.1 µM [falling, single point]

Ordered by heavy-atom count (high to low): part of the list above
Compound	cell number change [%]	AC50 [1]	AC50 [2]
CC(C)(c1ccccc1)c1ccc(OCC(O)CNC2CCN(Cc3ccccc3)CC2)cc1 (configuration not stated)	-134		29.1 µM [falling, single point]
COc1ccc(/C=C(\C#N)C(=O)OCC(=O)Nc2c(C)cccc2C(C)C)cc1			0.146 µM [rising, full curve, poor fit]
Nc1nc(SCC(=O)Nc2ccc(Cl)c([N+](=O)[O-])c2)n[nH]1	7.64	11.6 µM [falling, partial curve]	
